Reference: PMC13551775
No constants are given. Whether binding was seen depends on the method and setting. In cells and extracts the contact can be indirect. Binding calls can cover weak binding; strength is not graded here. Where a sequence is shown, tags or fusion partners need not be part of it.

Biological target: T1, Special AT-rich binding protein 2 (SATB2), GFP-tagged (human) (UniProt Q9UPW6)
T1 sequence: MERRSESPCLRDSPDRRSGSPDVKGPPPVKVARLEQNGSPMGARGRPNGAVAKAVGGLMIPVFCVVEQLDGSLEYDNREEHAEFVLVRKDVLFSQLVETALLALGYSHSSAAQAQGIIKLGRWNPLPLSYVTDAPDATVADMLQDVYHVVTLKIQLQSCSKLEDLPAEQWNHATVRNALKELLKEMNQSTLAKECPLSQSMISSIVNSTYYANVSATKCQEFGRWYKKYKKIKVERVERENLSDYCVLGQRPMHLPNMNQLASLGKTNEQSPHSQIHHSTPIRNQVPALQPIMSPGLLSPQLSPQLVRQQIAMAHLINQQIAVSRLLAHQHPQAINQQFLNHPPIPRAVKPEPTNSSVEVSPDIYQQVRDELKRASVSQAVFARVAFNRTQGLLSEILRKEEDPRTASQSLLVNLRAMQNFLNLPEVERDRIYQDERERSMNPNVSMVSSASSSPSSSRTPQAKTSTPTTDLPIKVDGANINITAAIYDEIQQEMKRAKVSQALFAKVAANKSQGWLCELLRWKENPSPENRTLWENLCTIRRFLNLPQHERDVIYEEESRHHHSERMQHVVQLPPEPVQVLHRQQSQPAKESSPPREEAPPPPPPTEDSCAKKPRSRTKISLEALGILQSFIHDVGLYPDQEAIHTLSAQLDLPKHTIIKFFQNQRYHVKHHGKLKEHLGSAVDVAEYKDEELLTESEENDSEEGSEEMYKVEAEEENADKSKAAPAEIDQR
Test: co-IP; lysate (Pierce IP Lysis Buffer, sonicated) of SATB2-GFP-circ-3×FLAG tagged BEAS-2B cells; Dynabeads Protein G pre-bound to SATB2 or anti-FLAG M2 antibody, overnight at 4 °C, 200 µg lysate protein; western blot

Q: How did the binding turn out when Lamin (human (endogenous in BEAS-2B)) was run?
A: binds
